The results in this text go back to paper PMC5399554.

The chains behind the UniProt entries cited, without tags or fusion partners. Residues count along the entry.
UniProt P38646, residues 47-679: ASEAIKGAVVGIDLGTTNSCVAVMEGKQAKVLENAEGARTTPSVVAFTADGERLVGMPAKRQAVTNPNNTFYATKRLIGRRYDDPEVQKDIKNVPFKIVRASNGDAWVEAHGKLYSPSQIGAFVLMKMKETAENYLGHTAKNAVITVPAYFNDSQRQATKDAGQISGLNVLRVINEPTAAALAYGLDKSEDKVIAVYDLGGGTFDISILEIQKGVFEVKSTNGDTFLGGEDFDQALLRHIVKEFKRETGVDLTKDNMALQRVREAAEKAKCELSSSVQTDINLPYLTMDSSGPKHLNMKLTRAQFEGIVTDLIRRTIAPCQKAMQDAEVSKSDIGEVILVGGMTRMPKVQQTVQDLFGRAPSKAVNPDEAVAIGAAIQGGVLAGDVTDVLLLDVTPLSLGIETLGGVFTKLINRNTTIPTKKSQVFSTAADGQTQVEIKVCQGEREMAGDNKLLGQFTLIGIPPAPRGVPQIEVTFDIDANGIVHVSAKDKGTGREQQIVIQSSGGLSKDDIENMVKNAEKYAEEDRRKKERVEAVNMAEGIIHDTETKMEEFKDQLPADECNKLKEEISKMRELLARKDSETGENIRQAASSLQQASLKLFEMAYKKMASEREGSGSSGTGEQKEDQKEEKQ
UniProt P9WPE7: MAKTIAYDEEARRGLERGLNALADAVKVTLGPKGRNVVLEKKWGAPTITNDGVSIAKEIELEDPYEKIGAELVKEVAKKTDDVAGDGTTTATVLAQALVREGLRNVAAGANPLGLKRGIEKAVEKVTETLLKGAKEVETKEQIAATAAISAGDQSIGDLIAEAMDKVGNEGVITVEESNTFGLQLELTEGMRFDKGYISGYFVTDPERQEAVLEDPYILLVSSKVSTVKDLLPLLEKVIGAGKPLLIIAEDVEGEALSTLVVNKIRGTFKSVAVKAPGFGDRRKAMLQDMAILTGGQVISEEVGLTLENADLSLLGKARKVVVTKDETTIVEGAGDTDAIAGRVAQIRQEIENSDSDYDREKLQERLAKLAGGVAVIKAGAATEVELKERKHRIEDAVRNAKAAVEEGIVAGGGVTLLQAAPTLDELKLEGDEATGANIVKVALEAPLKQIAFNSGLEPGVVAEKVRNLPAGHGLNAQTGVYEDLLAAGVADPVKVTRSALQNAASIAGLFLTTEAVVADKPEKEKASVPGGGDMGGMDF

The test addresses mortalin-mDHFR F3 fusion protein (human) (UniProt P38646). Nature of the test: split reporter.

Results are given in words; binding and its absence hold for the method and conditions named. In cells and extracts the contact can be indirect. Some binding calls cover weakened binding; strength is not graded here.

Take “Cpn60.2-mDHFR F1,2 fusion protein (from UniProt P9WPE7 1-540)”: the binding entry is “binds”.
